Here are results for four compounds from US9693828B2, “Composition comprising acetic anhydride and a gadolinium complex, and method for the use in hyperpolarisation in MRI analysis” (BRACCO IMAGING S.P.A., priority 2011, dated 2017).

This data set can be described thus: DNP hyperpolarisation of acetic anhydride with Finlandic acid trityl radical, with or without gadolinium complex (solid state polarisation build up). The data set is classed as physicochemical. The settings on record: for change of end polarisation of acetic anhydride by addition of the gadolinium complex, in comparison to ex. 1 (no gadolinium complex): factor / enhancement (times) versus radical only. The protocol: A stock solution of radical was prepared by dissolving Finlandic acid (2.7 mg, 2.6 μmol) in unlabeled acetic anhydride (22.2 mg) yielding a solution with a concentration of 105 μmol/g.

[1] abbreviates: 13C DNP, acetic anhydride/1,1'-13C2 acetic anhydride, Finlandic acid radical 12.5 mM, gadolinium complex added as labelled (none for acetic anhydride, Example 1), FIG. 1.

As for `CCCCCCCCCCCCCCCCCCN(CCCCCCCCCCCCCCCCCC)C(=O)CN1CCN(CC(=O)[O-])CCN(CC(=O)[O-])CCN(CC(=O)[O-])CC1.[Gd+3]` [Gadolinium complex II, [10-[2-(dioctadecylamino)-2-oxoethyl]-1,4,7,10-tetraazacyclododecane-1,4,7-triacetato(3-)]gadolinium, reference compound], the end polarisation value under setting [1] is listed as 6%.

With `CC(O)CN1CCN(CC(=O)[O-])CCN(CC(=O)[O-])CCN(CC(=O)[O-])CC1.[Gd+3]` (centres unmarked) [Gadolinium complex III, [10-(2-hydroxypropyl)-1,4,7,10-tetraazacyclododecane-1,4,7-triacetato(3-)]gadolinium, reference compound], the end polarisation value under setting [1] was 7.5%.

Take `CC(=O)OC(C)=O` [acetic anhydride]: the end polarisation value runs as follows: under setting [1], 5%; (Example 5: 1,1'-13C2 acetic anhydride, Finlandic acid 12.8 mM, no gadolinium complex) 5%.

For the compound “[[α1,α4,α7-tris[(phenylmethoxy)methyl]-1,4,7,10-tetraazacyclododecane-1,4,7,10-tetraacetato(4-)]gadolinate(1-)]hydrogen [Gadolinium complex I]”, the “change of end polarisation of acetic anhydride by addition of the gadolinium complex, in comparison to ex. 1 (no gadolinium complex)” value amounted to 2. Under setting [1], the end polarisation value is listed as 15%. Moreover, for the setting “listed as gadolinium complex of formula (I)”, the “change of end polarisation of acetic anhydride by addition of the gadolinium complex, in comparison to ex. 1 (no gadolinium complex)” value is “about 2”. Besides, the “degree of polarisation of acetic anhydride relative to that obtainable with Gd-DOTAM (II) or complex of formula (III)” value (in the presence of a DNP agent, Figure 1) stood at 2 times higher.
